This is an account of results in publication PMC10713660.

These are yes or no findings as the source states them, for the method shown. Binding seen in cells or lysates may run through a third protein. Some results given as binding are weak or reduced against the parent protein; the word gives no strength. Sequences can lack the tags named with a protein.

The target in the assay is coiled-coil glutamate-rich protein 1 (CCER1), mouse, full length, expressed as differently tagged copies (mouse) (UniProt Q9CQL2). Briefly: co-IP; HEK293T cells transfected with Flag-CCER1, mCherry-CCER1 and GFP-CCER1 plasmids for 36-48 h; lysed in RIPA buffer (50 mM Tris-HCl pH 7.5, 150 mM NaCl, 0.05% SDS, 1 mM EDTA, 1% NP-40, 1 mM DTT, 0.5% sodium deoxycholate) and sonicated at 4 °C; IP with anti-mCherry, anti-Flag or anti-GFP antibodies overnight at 4 °C, Protein A/G beads; western blot. (In western blotting, separated proteins are transferred to a membrane and probed.)

B1: coiled-coil glutamate-rich protein 1 (CCER1), mouse, full length, expressed as differently tagged copies (protein, UniProt Q9CQL2 1-403)
chain: MTQTVNEREDPLNLGGGGWASSIPLRTWSSYHRRQRGAPVSKRRYRDGPKIEYEASRKQPKQQRSPGSWFQPSRGPYWALYSNWERCGGPWRPPLIAFQSPLCPAQMIRAYGLHPLCVCCCSCWSGPWNPGWERPPGRKKRWGRRGRGLRRHPRRSFPRNPPIDLSKMLRPVNLSGWRAPGMRAPRNTTQFIMNQVYEDMRQQEKLERQQAALRAQQAQEGGISPGDSTTNDAPHSGVEEDSQLPEDLYGFMQDPSLTFSPALMQHNQSPTPGLVEEEEKNVDDDECDVEVCDEKEESEEEEEEEVDRGSEDEDVDEEEVEAAGNGEEGEEDQEEEYMLEETGLEEGEQRAEEKFLPLGMPLSILVGDEEERENFMNYDYLSQEQIIPNVPEADLFMVPDISH
On to B1, for which the binding entry was “binds”.
